For part of these data: For expression read-outs the peptide stands for its source gene, whose mRNA was measured; the gene is not named for every peptide.
Legend:
source genes (mRNA) [1] = experiment: Expression profiling of source genes by in-house RNASeq of tumor and normal tissues (Table 18, FIG. 2); parameters: species or system human; key: very highly over-expressed in tumors compared to a panel of normal tissues (+++); highly over-expressed in tumors compared to a panel of normal tissues (++); over-expressed in tumors compared to a panel of normal tissues (+); details: source gene of peptide; for Expression score NHL: non-Hodgkin lymphoma (N = 10) vs panel of normal tissues; for Expression score NSCLC: non-small cell lung cancer (N = 11) vs panel of normal tissues; for Expression score OC: ovarian cancer (N = 12) vs panel of normal tissues; for Expression score SCLC: small cell lung cancer (N = 10) vs panel of normal tissues
source genes (mRNA) [2] = experiment: Gene and exon expression of source genes, TCGA tumor samples compared with normal tissue samples (Lonsdale, 2013) (Table 17); parameters: species or system human; details: for Over-expression category of source gene (target coverage), BLCA: BLCA = Bladder urothelial carcinoma (N = 408); for Over-expression category of source gene (target coverage), BRCA: BRCA = Breast cancer (N = 1104), tumors more than 2-fold above highest 75% percentile of normal tissues; for Over-expression category of source gene (target coverage), COAD: COAD = Colon and rectal adenocarcinoma (N = 462); for Over-expression category of source gene (target coverage), DLBC: DLBC = Lymphoid neoplasm diffuse large B-cell lymphoma (N = 48); for Over-expression category of source gene (target coverage), ESCA: ESCA = Esophageal cancer (N = 185); for Over-expression category of source gene (target coverage), GBM: GBM = Glioblastoma multiforme (N = 169); for Over-expression category of source gene (target coverage), LAML: LAML = Acute Myeloid Leukemia (N = 173); for Over-expression category of source gene (target coverage), LGG: LGG = Lower grade glioma (N = 534); for Over-expression category of source gene (target coverage), LUAD: LUAD = Lung adenocarcinoma (N = 517); for Over-expression category of source gene (target coverage), LUSC: LUSC = Lung squamous cell carcinoma (N = 503); for Over-expression category of source gene (target coverage), OV: OV = Ovarian serous cystadenocarcinoma (N = 309); for Over-expression category of source gene (target coverage), READ: READ = Colon and rectal adenocarcinoma (N = 167); for Over-expression category of source gene (target coverage), SKCM: SKCM = Skin cutaneous melanoma (N = 473); for Over-expression category of source gene (target coverage), STAD: STAD = Stomach adenocarcinoma (N = 415); for Over-expression category of source gene (target coverage), UCEC: UCEC = Uterine corpus endometrial carcinoma (N = 546)
HLA-A*02 = experiment: Identification and relative LC-MS quantitation of HLA-A*02-presented tumor-associated peptides on tissue samples (presentation profiles, Tables 13A, 13B, 15, FIG. 1); parameters: species or system human; key to Presentation score NHL / Presentation score CLL / Presentation score BRCA / Presentation score AML / Presentation score GB / Presentation score NSCLC / Presentation score GBC_CCC / Presentation score UEC / Presentation score MEL / Presentation score OSCAR / Presentation score GC / Presentation score UBC / Presentation score OC / Presentation score RCC / Presentation score CRC / Presentation score PCA / Presentation score HCC / Presentation score PC / Presentation score SCLC: specifically presented on tumors (++++); very highly over-presented on tumors compared to a panel of normal tissues (+++); highly over-presented on tumors compared to a panel of normal tissues (++); over-presented on tumors compared to a panel of normal tissues (+); details: for Presentation score NHL: non-Hodgkin lymphoma (N = 18) vs panel of normal tissues (N = 262); for Presentation score NSCLC: non-small cell lung cancer (N = 90) vs panel of normal tissues (N = 262); for Peptide Presentation on cancer entities: HLA-A*02-binding tumor-associated peptides
[3] = Table 13A, cancer entities on which the peptide was found presented
[4] = Table 13B, presentation on additional cancer entities

236: peptide found in NCAPD3 (gene looked up) (STIAILNSV; listed as Homo sapiens) [compound 236]
Expression score NHL (source genes (mRNA) [1]): +
Expression score NSCLC (source genes (mRNA) [1]): +
Expression score OC (source genes (mRNA) [1]): +
Expression score PCA (source genes (mRNA) [1]; prostate cancer and benign prostate hyperplasia (N = 5) vs panel of normal tissues): +++
Expression score SCLC (source genes (mRNA) [1]): +
Over-expression category of source gene (target coverage), BLCA (source genes (mRNA) [2]; same cutoff): B (>= 20% of tumors above the cutoff, but <50%)
Over-expression category of source gene (target coverage), BRCA (source genes (mRNA) [2]): B (>= 20% of tumors above the cutoff, but <50%)
Over-expression category of source gene (target coverage), COAD (source genes (mRNA) [2]; same cutoff): A (>=50% of tumors above the cutoff)
Over-expression category of source gene (target coverage), DLBC (source genes (mRNA) [2]; same cutoff): A (>=50% of tumors above the cutoff)
Over-expression category of source gene (target coverage), ESCA (source genes (mRNA) [2]; same cutoff): B (>= 20% of tumors above the cutoff, but <50%)
Over-expression category of source gene (target coverage), GBM (source genes (mRNA) [2]; same cutoff): B (>= 20% of tumors above the cutoff, but <50%)
Over-expression category of source gene (target coverage), LAML (source genes (mRNA) [2]; same cutoff): A (>=50% of tumors above the cutoff)
Over-expression category of source gene (target coverage), LGG (source genes (mRNA) [2]; same cutoff): C (>=5% of tumors above the cutoff, but <20%)
Over-expression category of source gene (target coverage), LUAD (source genes (mRNA) [2]; same cutoff): C (>=5% of tumors above the cutoff, but <20%)
Over-expression category of source gene (target coverage), LUSC (source genes (mRNA) [2]; same cutoff): B (>= 20% of tumors above the cutoff, but <50%)
Over-expression category of source gene (target coverage), OV (source genes (mRNA) [2]; same cutoff): B (>= 20% of tumors above the cutoff, but <50%)
Over-expression category of source gene (target coverage), PRAD (source genes (mRNA) [2]; PRAD = Prostate adenocarcinoma (N = 498), same cutoff): A (>=50% of tumors above the cutoff)
Over-expression category of source gene (target coverage), READ (source genes (mRNA) [2]; same cutoff): A (>=50% of tumors above the cutoff)
Over-expression category of source gene (target coverage), SKCM (source genes (mRNA) [2]; same cutoff): C (>=5% of tumors above the cutoff, but <20%)
Over-expression category of source gene (target coverage), STAD (source genes (mRNA) [2]; same cutoff): B (>= 20% of tumors above the cutoff, but <50%)
Over-expression category of source gene (target coverage), UCEC (source genes (mRNA) [2]; same cutoff): B (>= 20% of tumors above the cutoff, but <50%)
Presentation score CLL (HLA-A*02; HLA-A*02 peptides, chronic lymphocytic leukemia (N = 17) vs panel of normal tissues (N = 262)): ++++
Presentation score OSCAR (HLA-A*02; HLA-A*02 peptides, esophageal cancer, including cancer of the gastric-esophageal junction (N = 17) vs panel of normal tissues (N = 262)): ++++
Presentation score GC (HLA-A*02; HLA-A*02 peptides, gastric cancer (N = 29) vs panel of normal tissues (N = 262)): ++++
Presentation score GB (HLA-A*02; HLA-A*02 peptides, glioblastoma (N = 41) vs panel of normal tissues (N = 262)): ++++
Presentation score NHL (HLA-A*02; HLA-A*02 peptides): ++++
Presentation score NSCLC (HLA-A*02; HLA-A*02 peptides): ++++
Presentation score PCA (HLA-A*02; HLA-A*02 peptides, prostate cancer and benign prostate hyperplasia (N = 39) vs panel of normal tissues (N = 262)): ++++
Peptide Presentation on cancer entities (HLA-A*02; [3]): GB, GC, NSCLC, PCA, CLL, OSCAR, NHL
Peptide Presentation on cancer entities (HLA-A*02; [4]): MEL

239: peptide found in MCM4 (gene looked up) (KMNESTRSV; listed as Homo sapiens) [compound 239]
Expression score BRCA (source genes (mRNA) [1]; BRCA tumors vs panel of normal tissues): +
Expression score AML (source genes (mRNA) [1]; acute myeloid leukemia (N = 11) vs panel of normal tissues): +
Expression score CRC (source genes (mRNA) [1]; colorectal cancer (N = 20) vs panel of normal tissues): +
Expression score OSCAR (source genes (mRNA) [1]; esophageal cancer incl. gastric-esophageal junction (N = 11) vs panel of normal tissues): +
Expression score GB (source genes (mRNA) [1]; glioblastoma (N = 24) vs panel of normal tissues): +
Expression score NHL (source genes (mRNA) [1]): +
Expression score NSCLC (source genes (mRNA) [1]): +
Expression score OC (source genes (mRNA) [1]): +
Expression score SCLC (source genes (mRNA) [1]): ++
Expression score UBC (source genes (mRNA) [1]; urinary bladder cancer (N = 10) vs panel of normal tissues): +
Over-expression category of source gene (target coverage), BLCA (source genes (mRNA) [2]; same cutoff): B (>= 20% of tumors above the cutoff, but <50%)
Over-expression category of source gene (target coverage), BRCA (source genes (mRNA) [2]): B (>= 20% of tumors above the cutoff, but <50%)
Over-expression category of source gene (target coverage), COAD (source genes (mRNA) [2]; same cutoff): A (>=50% of tumors above the cutoff)
Over-expression category of source gene (target coverage), DLBC (source genes (mRNA) [2]; same cutoff): B (>= 20% of tumors above the cutoff, but <50%)
Over-expression category of source gene (target coverage), ESCA (source genes (mRNA) [2]; same cutoff): A (>=50% of tumors above the cutoff)
Over-expression category of source gene (target coverage), GBM (source genes (mRNA) [2]; same cutoff): B (>= 20% of tumors above the cutoff, but <50%)
Over-expression category of source gene (target coverage), LAML (source genes (mRNA) [2]; same cutoff): A (>=50% of tumors above the cutoff)
Over-expression category of source gene (target coverage), LGG (source genes (mRNA) [2]; same cutoff): C (>=5% of tumors above the cutoff, but <20%)
Over-expression category of source gene (target coverage), LUAD (source genes (mRNA) [2]; same cutoff): C (>=5% of tumors above the cutoff, but <20%)
Over-expression category of source gene (target coverage), LUSC (source genes (mRNA) [2]; same cutoff): A (>=50% of tumors above the cutoff)
Over-expression category of source gene (target coverage), OV (source genes (mRNA) [2]; same cutoff): B (>= 20% of tumors above the cutoff, but <50%)
Over-expression category of source gene (target coverage), READ (source genes (mRNA) [2]; same cutoff): A (>=50% of tumors above the cutoff)
Over-expression category of source gene (target coverage), SKCM (source genes (mRNA) [2]; same cutoff): B (>= 20% of tumors above the cutoff, but <50%)
Over-expression category of source gene (target coverage), STAD (source genes (mRNA) [2]; same cutoff): B (>= 20% of tumors above the cutoff, but <50%)
Over-expression category of source gene (target coverage), UCEC (source genes (mRNA) [2]; same cutoff): B (>= 20% of tumors above the cutoff, but <50%)
Presentation score GBC_CCC (HLA-A*02; HLA-A*02 peptides, gallbladder adenocarcinoma and cholangiocarcinoma (N = 6) vs panel of normal tissues (N = 262)): ++++
Presentation score NHL (HLA-A*02; HLA-A*02 peptides): ++++
Presentation score NSCLC (HLA-A*02; HLA-A*02 peptides): ++++
Peptide Presentation on cancer entities (HLA-A*02; [3]): NSCLC, GBC_CCC, NHL
Peptide Presentation on cancer entities (HLA-A*02; [4]): GB, CRC

Reference: patent US20170189504A1, “NOVEL PEPTIDES AND COMBINATION OF PEPTIDES FOR USE IN IMMUNOTHERAPY AGAINST VARIOUS CANCERS” (immatics biotechnologies GmbH, priority 2015, published 2017)
